Source: publication PMC11201974, “Structural Insights into the Rrp4 Subunit from the Crystal Structure of the Thermoplasma acidophilum Exosome” (Biomolecules, 2024)
No constants are given. Whether binding was seen depends on the method and setting. Some results given as binding are weak or reduced against the parent protein; the word gives no strength. Blank lines part the entries; values can stand above or below the binder they belong to.

Experiments:
[1] = molecular target: T1, Thermoplasma acidophilum exosome subunit Rrp42, truncated core domain, residues 20-240 (TaciRrp42) (Thermoplasma acidophilum) (UniProt Q9HIP1); assay: crystal structure; TaciRrp41:42 binary complex with phosphate, 2.3 Å, space group P2(1)3; hanging drop, 0.08 M sodium acetate trihydrate, 1.6 M ammonium sulfate, 20% glycerol, pH 4.9, 22 °C; both purified
T1 sequence (chain, RED-tris-NTA fluorescent dye on the His tag (in MST)): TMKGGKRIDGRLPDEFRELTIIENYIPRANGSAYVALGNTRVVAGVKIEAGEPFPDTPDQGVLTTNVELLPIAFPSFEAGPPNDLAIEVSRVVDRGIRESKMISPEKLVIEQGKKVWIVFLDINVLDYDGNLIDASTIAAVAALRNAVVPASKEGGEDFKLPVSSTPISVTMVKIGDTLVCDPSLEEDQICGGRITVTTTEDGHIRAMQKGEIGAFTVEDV

[2] = molecular target: T1, Thermoplasma acidophilum exosome subunit Rrp42, truncated core domain, residues 20-240 (TaciRrp42) (Thermoplasma acidophilum); assay: crystal structure; TaciRrp4:41:42 ternary complex, 3.5 Å, space group P3(2)21; TaciRrp41:42 and TaciRrp4 incubated 1 h at room temperature and separated by gel filtration; hanging drop, 0.08 M sodium acetate trihydrate, 1.6 M ammonium sulfate, 20% glycerol, pH 4.9, 22 °C; both purified
[3] = molecular target: T2, TaciRrp41:42 complex (Thermoplasma acidophilum exosome core, Rrp41 with truncated Rrp42) (Thermoplasma acidophilum) (UniProt Q9HIP2+Q9HIP1); assay: as above
T2 sequence 1: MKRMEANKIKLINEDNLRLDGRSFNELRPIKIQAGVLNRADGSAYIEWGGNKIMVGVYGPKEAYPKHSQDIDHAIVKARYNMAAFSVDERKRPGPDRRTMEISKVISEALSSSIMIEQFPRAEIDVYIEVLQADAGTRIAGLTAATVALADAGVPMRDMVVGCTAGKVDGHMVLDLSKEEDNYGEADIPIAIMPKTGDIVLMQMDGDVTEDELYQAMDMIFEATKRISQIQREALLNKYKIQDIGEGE
T2 sequence 2: T1 sequence (chain, RED-tris-NTA fluorescent dye on the His tag (in MST))

binding [1]: binds | binding [2]: binds
B1: Thermoplasma acidophilum exosome subunit Rrp41 (TaciRrp41) (protein, UniProt Q9HIP2 1-248)
chain: T2 sequence 1

binding [2]: binds | binding [3]: binds
B2: Thermoplasma acidophilum exosome subunit Rrp4 (TaciRrp4) (natural protein, UniProt Q9HIP3 1-236, looked up)
chain: MYQLGDVKKIVLPGDPIEVQGKMRNGVYRGQDNRYYSEYFGTLQVNDQFVDVVPFSGQYIPRKGDKVIGKVIEVGPSTWTVDINSPYFAMLHMNDTPWRMSSGDLKRYLNAGDYIYAKIMSVNEIKESWLTLKEPGLKKLEGGHMVLIHASRVPRVIGKGGGMVNMVKELTATRIIIGQNGLIWIDGPIEGVTMAIAAIEMIEREAHTEGLTARVESFLKELKGEKDGSQQNKADQ
notes: Exosome complex component Rrp4 of Thermoplasma acidophilum (N-terminal domain, S1 domain, KH domain); also called TaciRrp4-capping protein; source: E. coli Rosetta, from pET22b; purified (Ni-NTA, Superdex 200)
